In publication doi:10.1101/2020.02.21.958371:
These are yes or no findings as the source states them, for the method shown. Binding seen in cells or lysates may run through a third protein. Here binding means that the protein was enriched with, or labelled near, the bait; the list need not be complete. For some assays here: Sequences can lack the tags named with a protein. Each block holds one molecule with its values, some of them ahead of it.

Legend:
[1] = target: T1, ROS1-3xFLAG-3xHA (3xFLAG-3xHA-tagged ROS1 under its native promoter in the ros1-13 mutant) (Arabidopsis) (UniProt Q9SJQ6); assay: affinity purification with mass spectrometry
T1 sequence: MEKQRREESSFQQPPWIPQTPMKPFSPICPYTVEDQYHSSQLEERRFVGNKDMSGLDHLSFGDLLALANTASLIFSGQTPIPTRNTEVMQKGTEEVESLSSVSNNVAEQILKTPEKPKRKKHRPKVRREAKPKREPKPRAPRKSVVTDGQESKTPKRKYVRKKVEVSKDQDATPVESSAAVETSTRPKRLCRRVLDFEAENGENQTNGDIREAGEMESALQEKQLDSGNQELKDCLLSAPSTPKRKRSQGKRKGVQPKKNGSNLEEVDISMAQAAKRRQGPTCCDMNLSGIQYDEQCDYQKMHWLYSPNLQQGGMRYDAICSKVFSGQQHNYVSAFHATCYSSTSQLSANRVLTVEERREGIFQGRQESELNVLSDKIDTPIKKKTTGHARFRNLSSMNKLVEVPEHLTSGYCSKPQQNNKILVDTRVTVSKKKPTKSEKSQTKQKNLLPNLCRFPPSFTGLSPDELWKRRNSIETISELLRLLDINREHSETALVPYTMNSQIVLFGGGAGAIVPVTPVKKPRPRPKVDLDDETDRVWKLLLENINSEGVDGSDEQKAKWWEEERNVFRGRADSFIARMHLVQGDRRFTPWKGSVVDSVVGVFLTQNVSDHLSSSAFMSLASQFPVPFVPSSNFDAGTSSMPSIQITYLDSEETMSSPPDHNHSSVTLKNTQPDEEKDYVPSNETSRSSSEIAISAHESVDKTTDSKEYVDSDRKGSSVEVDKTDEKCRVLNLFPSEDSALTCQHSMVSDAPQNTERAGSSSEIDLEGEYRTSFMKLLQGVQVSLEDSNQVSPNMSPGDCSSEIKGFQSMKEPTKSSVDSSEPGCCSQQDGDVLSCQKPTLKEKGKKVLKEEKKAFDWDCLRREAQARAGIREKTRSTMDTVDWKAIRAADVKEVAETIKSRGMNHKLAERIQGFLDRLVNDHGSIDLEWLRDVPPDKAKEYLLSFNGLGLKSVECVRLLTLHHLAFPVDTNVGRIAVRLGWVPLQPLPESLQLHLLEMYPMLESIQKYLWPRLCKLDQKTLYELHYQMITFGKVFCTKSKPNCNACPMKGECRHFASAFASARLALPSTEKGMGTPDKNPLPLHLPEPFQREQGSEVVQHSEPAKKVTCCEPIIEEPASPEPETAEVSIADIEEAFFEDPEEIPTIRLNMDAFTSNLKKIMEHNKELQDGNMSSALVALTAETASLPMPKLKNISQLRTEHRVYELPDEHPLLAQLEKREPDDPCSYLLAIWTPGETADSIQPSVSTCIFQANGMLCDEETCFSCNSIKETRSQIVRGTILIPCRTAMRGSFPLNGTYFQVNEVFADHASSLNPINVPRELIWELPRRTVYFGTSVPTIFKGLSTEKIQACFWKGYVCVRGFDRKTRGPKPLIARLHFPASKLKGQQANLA

[2] = target: 3xFLAG-RWD40 fusion driven by the RWD40 native promoter in the rwd40-1 mutant background (Arabidopsis); assay: affinity purification with mass spectrometry

binding [1]: binds
Molecule: RWD40, endogenous in Arabidopsis

binding [2]: binds
B1: ROS1, endogenous in Arabidopsis (protein, UniProt Q9SJQ6 1-1393)
chain: T1 sequence
